Binding data for two substances are collected here from article PMC10269600.

The assay has as its target T1, IRF7-Flag (UniProt Q92985).
T1 sequence: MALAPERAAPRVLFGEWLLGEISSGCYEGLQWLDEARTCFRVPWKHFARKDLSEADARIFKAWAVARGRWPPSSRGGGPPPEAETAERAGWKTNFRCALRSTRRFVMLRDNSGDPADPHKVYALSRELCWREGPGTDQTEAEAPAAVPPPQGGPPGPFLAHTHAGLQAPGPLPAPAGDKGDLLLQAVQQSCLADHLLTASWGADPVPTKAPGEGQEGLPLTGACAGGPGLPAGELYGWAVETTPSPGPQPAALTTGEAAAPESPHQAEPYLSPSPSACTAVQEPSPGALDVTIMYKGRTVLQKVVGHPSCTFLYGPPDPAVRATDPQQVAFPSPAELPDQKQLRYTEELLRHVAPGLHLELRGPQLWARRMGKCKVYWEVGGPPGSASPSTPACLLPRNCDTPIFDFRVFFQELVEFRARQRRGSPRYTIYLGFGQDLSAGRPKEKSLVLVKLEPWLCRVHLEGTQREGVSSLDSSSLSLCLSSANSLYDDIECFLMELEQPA
The experiment in a line: co-IP; HEK293T cotransfected with the tagged plasmids; lysate precipitated with anti-Flag beads (6 h, 4°C), washed six times with PBS, eluted with glycine pH 2.4; immunoblot for the partner's tag. On the technique in general: In western blotting, separated proteins are transferred to a membrane and probed.

These are yes or no findings as the source states them, for the method shown. In cells and extracts the contact can be indirect. A result given as binding can be weak or reduced; the word gives no strength. Tags and fused reporters may be left off the sequences shown.

As for “EV-D68 VP3_(Δ41–50)-Myc (from UniProt Q68T42)”, the binding entry is listed as “binds”. Consider “EV-D68 VP3_(Δ61–70)-Myc (from UniProt Q68T42)”, for which the binding result is recorded as “binds”.
